From the supplement of paper PMC10849652
The other results are listed elsewhere or left out.

Amino acid sequences for entries named in this document (tags omitted). A change or cut given only in a name is not applied to a line headed by its entry.
UniProt P07711: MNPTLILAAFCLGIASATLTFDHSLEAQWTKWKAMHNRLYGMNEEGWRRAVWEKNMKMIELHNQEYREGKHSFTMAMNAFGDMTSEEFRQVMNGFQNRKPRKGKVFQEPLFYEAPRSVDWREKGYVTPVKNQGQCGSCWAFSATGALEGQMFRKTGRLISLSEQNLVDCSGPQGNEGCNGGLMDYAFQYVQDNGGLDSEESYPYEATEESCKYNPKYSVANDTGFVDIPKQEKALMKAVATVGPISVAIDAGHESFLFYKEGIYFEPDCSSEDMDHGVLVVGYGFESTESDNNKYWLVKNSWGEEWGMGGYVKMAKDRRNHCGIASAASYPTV
UniProt Q05D32: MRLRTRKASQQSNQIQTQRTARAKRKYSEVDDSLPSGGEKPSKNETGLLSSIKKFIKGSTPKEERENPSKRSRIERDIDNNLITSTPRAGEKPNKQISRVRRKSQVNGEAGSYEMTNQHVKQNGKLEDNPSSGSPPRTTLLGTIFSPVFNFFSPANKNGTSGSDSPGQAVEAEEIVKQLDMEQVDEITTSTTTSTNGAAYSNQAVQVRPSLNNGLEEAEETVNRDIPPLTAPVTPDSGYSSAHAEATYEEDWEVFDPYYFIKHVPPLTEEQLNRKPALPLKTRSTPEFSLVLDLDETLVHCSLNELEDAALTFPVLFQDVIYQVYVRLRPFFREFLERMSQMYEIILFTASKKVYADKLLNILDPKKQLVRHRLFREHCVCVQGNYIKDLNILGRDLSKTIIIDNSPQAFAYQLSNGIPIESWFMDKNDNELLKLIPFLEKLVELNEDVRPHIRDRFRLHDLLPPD
UniProt Q01459: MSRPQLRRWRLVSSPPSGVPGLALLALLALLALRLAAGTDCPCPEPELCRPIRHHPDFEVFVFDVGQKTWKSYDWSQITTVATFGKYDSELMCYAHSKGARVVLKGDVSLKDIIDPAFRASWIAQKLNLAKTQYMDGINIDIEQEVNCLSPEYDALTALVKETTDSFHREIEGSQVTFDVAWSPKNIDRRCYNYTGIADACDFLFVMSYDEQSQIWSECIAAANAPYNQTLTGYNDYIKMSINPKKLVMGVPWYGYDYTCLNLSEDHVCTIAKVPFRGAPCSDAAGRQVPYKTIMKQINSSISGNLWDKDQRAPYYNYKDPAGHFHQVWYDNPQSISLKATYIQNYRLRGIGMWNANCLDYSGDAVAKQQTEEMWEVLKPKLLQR
UniProt P00167, whole entry, looked up: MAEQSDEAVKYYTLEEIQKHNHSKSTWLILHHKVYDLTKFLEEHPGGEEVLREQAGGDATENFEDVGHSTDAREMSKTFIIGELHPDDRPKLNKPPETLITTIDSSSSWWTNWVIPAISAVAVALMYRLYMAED
UniProt O60888: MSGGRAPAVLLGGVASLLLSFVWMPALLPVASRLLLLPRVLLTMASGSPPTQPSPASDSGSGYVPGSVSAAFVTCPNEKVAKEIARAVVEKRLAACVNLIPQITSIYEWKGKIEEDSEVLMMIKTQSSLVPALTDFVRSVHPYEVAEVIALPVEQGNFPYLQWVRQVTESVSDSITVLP
UniProt Q15438: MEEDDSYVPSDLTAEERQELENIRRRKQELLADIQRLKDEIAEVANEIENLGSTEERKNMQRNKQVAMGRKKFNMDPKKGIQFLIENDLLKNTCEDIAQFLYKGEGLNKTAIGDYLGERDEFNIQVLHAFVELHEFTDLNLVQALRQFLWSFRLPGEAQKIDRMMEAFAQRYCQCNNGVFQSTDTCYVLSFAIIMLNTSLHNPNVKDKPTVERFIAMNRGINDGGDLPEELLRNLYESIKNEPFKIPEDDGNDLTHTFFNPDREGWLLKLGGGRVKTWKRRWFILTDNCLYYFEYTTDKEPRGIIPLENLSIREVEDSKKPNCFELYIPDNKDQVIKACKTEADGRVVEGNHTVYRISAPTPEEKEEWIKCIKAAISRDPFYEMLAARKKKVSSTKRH
UniProt Q9UIK4: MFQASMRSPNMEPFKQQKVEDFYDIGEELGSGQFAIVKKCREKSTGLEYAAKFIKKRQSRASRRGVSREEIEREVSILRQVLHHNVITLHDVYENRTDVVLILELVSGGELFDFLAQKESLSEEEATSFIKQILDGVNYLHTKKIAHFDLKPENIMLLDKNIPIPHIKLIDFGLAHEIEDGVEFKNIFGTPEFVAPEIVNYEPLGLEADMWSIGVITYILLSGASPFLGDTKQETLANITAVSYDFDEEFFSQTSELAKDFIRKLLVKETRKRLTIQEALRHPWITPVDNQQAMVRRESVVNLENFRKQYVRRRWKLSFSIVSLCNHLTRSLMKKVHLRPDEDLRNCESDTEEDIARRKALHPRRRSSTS
UniProt P53355: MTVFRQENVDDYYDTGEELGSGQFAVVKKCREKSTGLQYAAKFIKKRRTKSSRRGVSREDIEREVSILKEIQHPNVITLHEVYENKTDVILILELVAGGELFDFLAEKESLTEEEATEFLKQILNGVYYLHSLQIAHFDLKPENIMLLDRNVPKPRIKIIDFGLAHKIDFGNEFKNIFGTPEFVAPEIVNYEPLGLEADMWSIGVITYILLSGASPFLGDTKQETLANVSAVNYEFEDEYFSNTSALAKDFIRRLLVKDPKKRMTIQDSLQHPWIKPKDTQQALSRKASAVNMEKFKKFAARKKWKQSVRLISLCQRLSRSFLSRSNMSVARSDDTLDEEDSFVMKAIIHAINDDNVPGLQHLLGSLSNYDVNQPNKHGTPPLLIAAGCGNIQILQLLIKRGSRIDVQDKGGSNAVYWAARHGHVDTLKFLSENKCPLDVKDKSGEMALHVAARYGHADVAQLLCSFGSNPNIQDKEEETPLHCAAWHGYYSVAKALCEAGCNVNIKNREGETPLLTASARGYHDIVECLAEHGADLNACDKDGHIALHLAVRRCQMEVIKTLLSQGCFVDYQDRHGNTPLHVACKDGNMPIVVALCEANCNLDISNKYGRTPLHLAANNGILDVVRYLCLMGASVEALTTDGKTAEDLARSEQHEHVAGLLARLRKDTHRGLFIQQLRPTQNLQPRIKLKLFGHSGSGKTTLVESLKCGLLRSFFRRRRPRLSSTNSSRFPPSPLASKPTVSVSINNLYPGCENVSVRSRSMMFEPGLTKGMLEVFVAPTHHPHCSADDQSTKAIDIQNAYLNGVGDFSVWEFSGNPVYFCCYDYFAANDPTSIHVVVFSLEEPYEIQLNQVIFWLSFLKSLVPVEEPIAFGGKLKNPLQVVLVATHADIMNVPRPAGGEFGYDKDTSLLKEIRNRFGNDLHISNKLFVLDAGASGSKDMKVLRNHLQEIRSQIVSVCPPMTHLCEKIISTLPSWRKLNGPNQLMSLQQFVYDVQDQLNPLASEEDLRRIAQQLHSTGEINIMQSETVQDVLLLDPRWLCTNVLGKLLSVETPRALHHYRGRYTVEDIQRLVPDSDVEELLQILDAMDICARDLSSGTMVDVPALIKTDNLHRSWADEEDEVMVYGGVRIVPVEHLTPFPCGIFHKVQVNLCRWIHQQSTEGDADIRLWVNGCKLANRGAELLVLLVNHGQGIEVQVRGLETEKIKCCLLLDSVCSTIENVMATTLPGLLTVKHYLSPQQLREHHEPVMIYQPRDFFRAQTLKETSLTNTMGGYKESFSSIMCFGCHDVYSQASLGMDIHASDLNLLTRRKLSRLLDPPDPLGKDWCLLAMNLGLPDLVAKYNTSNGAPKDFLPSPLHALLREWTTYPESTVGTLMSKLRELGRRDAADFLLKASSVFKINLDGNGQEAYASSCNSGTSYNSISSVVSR
UniProt Q86T65: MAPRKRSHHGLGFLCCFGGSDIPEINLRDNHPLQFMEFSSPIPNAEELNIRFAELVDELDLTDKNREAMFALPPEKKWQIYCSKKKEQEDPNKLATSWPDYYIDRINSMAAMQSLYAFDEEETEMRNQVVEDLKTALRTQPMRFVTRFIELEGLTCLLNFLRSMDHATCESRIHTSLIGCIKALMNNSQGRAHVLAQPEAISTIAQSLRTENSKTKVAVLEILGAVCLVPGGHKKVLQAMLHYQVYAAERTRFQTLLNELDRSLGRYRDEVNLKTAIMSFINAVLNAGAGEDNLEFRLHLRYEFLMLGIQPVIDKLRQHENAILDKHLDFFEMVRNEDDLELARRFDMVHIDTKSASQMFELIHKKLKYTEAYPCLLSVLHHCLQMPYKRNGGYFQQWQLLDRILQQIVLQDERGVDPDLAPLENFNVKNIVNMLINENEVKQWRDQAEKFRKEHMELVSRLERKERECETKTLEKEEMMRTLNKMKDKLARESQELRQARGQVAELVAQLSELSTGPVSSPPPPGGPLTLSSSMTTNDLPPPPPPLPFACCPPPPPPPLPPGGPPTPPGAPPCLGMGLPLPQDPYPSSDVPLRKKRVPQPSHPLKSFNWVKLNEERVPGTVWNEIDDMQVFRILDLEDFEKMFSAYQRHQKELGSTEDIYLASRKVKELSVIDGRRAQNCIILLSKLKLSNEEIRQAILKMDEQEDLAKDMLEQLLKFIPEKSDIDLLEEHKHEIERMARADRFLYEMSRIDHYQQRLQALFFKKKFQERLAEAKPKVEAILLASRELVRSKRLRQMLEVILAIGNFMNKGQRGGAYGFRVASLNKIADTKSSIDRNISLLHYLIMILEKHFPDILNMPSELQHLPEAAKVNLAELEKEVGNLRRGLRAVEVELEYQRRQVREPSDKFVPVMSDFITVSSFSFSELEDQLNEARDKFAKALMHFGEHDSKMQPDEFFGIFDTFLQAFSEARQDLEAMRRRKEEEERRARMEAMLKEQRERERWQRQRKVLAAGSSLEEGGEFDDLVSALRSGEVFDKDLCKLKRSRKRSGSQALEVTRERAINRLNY
UniProt Q9BWK5: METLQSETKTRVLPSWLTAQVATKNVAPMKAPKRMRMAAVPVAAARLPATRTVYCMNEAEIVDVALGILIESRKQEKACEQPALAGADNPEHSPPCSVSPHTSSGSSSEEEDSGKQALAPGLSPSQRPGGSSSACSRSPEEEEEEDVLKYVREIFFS
UniProt P50461: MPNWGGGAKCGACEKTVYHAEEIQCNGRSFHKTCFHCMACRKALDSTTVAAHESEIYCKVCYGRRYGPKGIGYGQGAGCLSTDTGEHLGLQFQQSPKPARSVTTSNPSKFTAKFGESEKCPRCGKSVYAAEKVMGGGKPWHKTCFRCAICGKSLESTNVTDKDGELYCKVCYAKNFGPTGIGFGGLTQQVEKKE

What was measured:
Test in all cases: log2 fold change, soluble protein after heating vs DMSO (PISA); higher = thermal stabilisation; K562 cells, 10 uM, 30 min; active = over 0.2 and 3.5 SD of the protein, either way, in both replicates (recomputed)
saracatinib = compound: CN1CCN(CCOc2cc(OC3CCOCC3)c3c(Nc4c(Cl)ccc5c4OCO5)ncnc3c2)CC1 [saracatinib]
How it was run: (§1)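 Values are thermal stability changes relative to control samples and are taken from duplicates. They are stated as log2 fold changes. Before quantification by TMTpro 16plex LC-MS/MS with equalised channel sums, K562 cells at 2×10^6 cells/mL were treated with 10 μM compound for 30 min, heated in aliquots for 3 min across 48°C-58°C, pooled, extracted in PBS with 0.5% NP-40 at 4°C, and centrifuged at 21,000xg for 90 min to give the soluble supernatant.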

sotrastaurin = compound: CN1CCN(c2nc(C3=C(c4c[nH]c5ccccc45)C(=O)NC3=O)c3ccccc3n2)CC1 [sotrastaurin]
How it was run: as §1

Tubastatin A = compound: CN1CCc2c(c3ccccc3n2Cc2ccc(C(=O)NO)cc2)C1 [Tubastatin A]
How it was run: as §1

[1] = compound: CNC(=O)C1=CC=CC=C1NC2=NC(=NC=C2Cl)NC3=C(C=C(C=C3)N4CCOCC4)OC
How it was run: as §1

defactinib = compound: CNC(=O)c1ccc(Nc2ncc(C(F)(F)F)c(NCc3nccnc3N(C)S(C)(=O)=O)n2)cc1 [defactinib]
How it was run: as §1

rucaparib = compound: CNCc1ccc(-c2[nH]c3cc(F)cc4c3c2CCNC4=O)cc1 [rucaparib]
How it was run: as §1

[2] = compound: CNc1nc(-c2ccc3c(N)n[nH]c3c2)cc(N2C[C@@H](C(=O)NC3CCCCC3)CC[C@H]2C)n1
How it was run: as §1

encorafenib = compound: COC(=O)N[C@@H](C)CNc1nccc(-c2cn(C(C)C)nc2-c2cc(Cl)cc(NS(C)(=O)=O)c2F)n1 [encorafenib]
How it was run: as §1

[3] = compound: COC(=O)[C@H](CCSC)NC(=O)C1=C(C=C(C=C1)NC[C@H](CS)N)C2=CC=CC=C2
How it was run: as §1

[4] = compound: COC1=CC=C(C=C1)CN2C=CC3=C2C=C(C=C3)C(=O)NO
How it was run: as §1

filanesib = compound: CON(C)C(=O)N1N=C(c2cc(F)ccc2F)S[C@@]1(CCCN)c1ccccc1 [filanesib]
How it was run: as §1

zotarolimus = compound: CO[C@H]1C[C@@H]2CC[C@@H](C)[C@@](O)(O2)C(=O)C(=O)N2CCCC[C@H]2C(=O)O[C@H]([C@H](C)C[C@@H]2CC[C@H](n3cnnn3)[C@H](OC)C2)CC(=O)[C@H](C)/C=C(\C)[C@@H](O)[C@@H](OC)C(=O)[C@H](C)C[C@H](C)/C=C/C=C/C=C/1C [zotarolimus]
How it was run: as §1

idasanutlin = compound: COc1cc(C(=O)O)ccc1NC(=O)[C@@H]1N[C@@H](CC(C)(C)C)[C@](C#N)(c2ccc(Cl)cc2F)[C@H]1c1cccc(Cl)c1F [idasanutlin]
How it was run: as §1

alisertib = compound: COc1cc(Nc2ncc3c(n2)-c2ccc(Cl)cc2C(c2c(F)cccc2OC)=NC3)ccc1C(=O)O [alisertib]
How it was run: as §1

[5] = compound: COc1cc2nc(-c3cc(F)ccc3O)nc(N[C@@H]3CNC[C@H]3C(C)(C)O)c2cc1OC
How it was run: as §1

gefitinib = compound: COc1cc2ncnc(Nc3ccc(F)c(Cl)c3)c2cc1OCCCN1CCOCC1 [gefitinib]
How it was run: as §1

[6] = compound: COc1cccc2cc(-c3nc([C@H]4CC[C@H](C(=O)O)CC4)n4ncnc(N)c34)[nH]c12
How it was run: as §1

lapatinib = compound: CS(=O)(=O)CCNCc1ccc(-c2ccc3ncnc(Nc4ccc(OCc5cccc(F)c5)c(Cl)c4)c3c2)o1 [lapatinib]
How it was run: as §1

pictilisib = compound: CS(=O)(=O)N1CCN(Cc2cc3nc(-c4cccc5[nH]ncc45)nc(N4CCOCC4)c3s2)CC1 [pictilisib]
How it was run: as §1

alvocidib = compound: CN1CC[C@H](c2c(O)cc(O)c3c(=O)cc(-c4ccccc4Cl)oc23)[C@H](O)C1 [alvocidib]
How it was run: as §1

Measured: log2 fold change

CTSB (UniProt P07858)
inactive: saracatinib 0.05 | sotrastaurin 0.064 | Tubastatin A 0.002 | [1] 0.052 | defactinib -0.014 | rucaparib -0.073 | [2] -0.009 | encorafenib 0.013 | [3] -0.008 | [4] 0.044 | filanesib -0.16 | zotarolimus 0.044 | idasanutlin 0.032 | alisertib 0.007 | [5] -0.006 | gefitinib 0.024 | [6] 0.03 | lapatinib -0.016 | pictilisib 0.043

CTSL (UniProt P07711)
active: filanesib 0.316
inactive: saracatinib 0.113 | sotrastaurin 0.05 | Tubastatin A 0.038 | [1] 0.024 | defactinib 0.032 | rucaparib 0.049 | [2] 0.018 | encorafenib -0.008 | [3] 0.02 | [4] -0.143 | zotarolimus -0.041 | idasanutlin 0.125 | alisertib -0.099 | [5] 0.044 | gefitinib 0.025 | [6] 0.086 | lapatinib 0.087 | pictilisib 0.057

CTDSPL2 (UniProt Q05D32)
inactive: saracatinib -0.046 | alvocidib -0.12 | [2] -0.374 | zotarolimus 0.106 | idasanutlin 0.082 | gefitinib 0.05 | pictilisib 0.192

CTBS (UniProt Q01459)
inactive: saracatinib 0.081 | sotrastaurin -0.245 | Tubastatin A 0.038 | [1] 0.023 | defactinib -0.082 | rucaparib 0.055 | [2] -0.132 | encorafenib -0.093 | [3] -0.038 | [4] -0.006 | filanesib -0.038 | zotarolimus 0.002 | idasanutlin 0.018 | alisertib -0.032 | [5] 0.026 | gefitinib 0.01 | [6] 0.055 | lapatinib 0.004 | pictilisib -0.068

CYB5A (UniProt P00167)
inactive: saracatinib -0.011 | sotrastaurin 0.012 | [1] 0.042 | defactinib -0.007 | rucaparib -0.039 | [2] -0.026 | encorafenib -0.053 | [3] 0.027 | filanesib 0.007 | idasanutlin -0.019 | alisertib -0.028 | [5] -0.157 | gefitinib 0.02 | [6] 0.085 | lapatinib -0.149 | pictilisib 0.059

CTR9 (UniProt Q6PD62)
inactive: saracatinib -0.208 | sotrastaurin -0.048 | [1] -0.162 | rucaparib 0.242 | [2] 0.004 | encorafenib 0.298 | [4] -0.391 | filanesib 0.027 | [5] -0.249 | lapatinib -0.182 | pictilisib -0.007

Reprinted at random: two records from the list.
CTDSPL2 (UniProt Q05D32)
inactive: saracatinib -0.046 | alvocidib -0.12 | [2] -0.374 | zotarolimus 0.106 | idasanutlin 0.082 | gefitinib 0.05 | pictilisib 0.192

CYB5A (UniProt P00167)
inactive: saracatinib -0.011 | sotrastaurin 0.012 | [1] 0.042 | defactinib -0.007 | rucaparib -0.039 | [2] -0.026 | encorafenib -0.053 | [3] 0.027 | filanesib 0.007 | idasanutlin -0.019 | alisertib -0.028 | [5] -0.157 | gefitinib 0.02 | [6] 0.085 | lapatinib -0.149 | pictilisib 0.059

More entries

CUTA isoform 2 (UniProt O60888)
inactive: saracatinib 0.202 | sotrastaurin 0.097 | Tubastatin A 0.049 | [1] 0.003 | defactinib -0.027 | rucaparib -0.035 | [2] 0.034 | encorafenib -0.002 | [3] 0.122 | [4] 0.248 | filanesib 0.108 | zotarolimus -0.159 | idasanutlin 0.002 | alisertib -0.055 | [5] -0.225 | gefitinib 0.037 | [6] 0.012 | lapatinib 0.023 | pictilisib -0.358

DCP2 (UniProt Q8IU60)
inactive: saracatinib -0.053 | sotrastaurin -0.267 | Tubastatin A 0.013 | defactinib 0.098 | [2] -0.153 | [3] 0.081 | [4] -0.085 | filanesib 0.121 | zotarolimus -0.037 | idasanutlin 0.167 | [5] 0.075 | lapatinib -0.042

CYTH1 (UniProt Q15438)
inactive: saracatinib 0.129 | Tubastatin A 0.016 | defactinib -0.029 | rucaparib 0.105 | [2] 0.004 | encorafenib -0.088 | [3] -0.011 | idasanutlin -0.123 | alisertib 0.13 | [5] -0.115 | [6] 0.063 | lapatinib -0.093

DAPK2 isoform 2 (UniProt Q9UIK4)
inactive: sotrastaurin -0.019 | [4] -0.012 | filanesib 0.189 | alisertib -0.05 | [6] -0.091

CTBP1 (UniProt E7ESU7)
inactive: [1] -0.015

DAPK1 isoform 3 (UniProt P53355)
inactive: sotrastaurin 0.035 | filanesib 0.031 | alisertib 0.04 | [5] 0.088 | [6] 0.002 | lapatinib -0.256

DAAM2 (UniProt Q86T65)
inactive: saracatinib 0.054 | [1] -0.111 | [2] -0.022 | [4] -0.121 | gefitinib 0.029

CYREN (UniProt Q9BWK5)
inactive: [1] 0.206 | defactinib -0.098 | rucaparib 0.005 | encorafenib 0.098 | [3] -0.085 | [4] 0.002 | alisertib 0.185 | gefitinib -0.009 | [6] 0.157 | pictilisib 0.094

CSRP3 (UniProt P50461)
inactive: sotrastaurin -0.052 | alvocidib -0.013 | Tubastatin A -0.058 | [1] 0.009 | defactinib 0.131 | rucaparib -0.067 | encorafenib -0.049 | [3] 0.117 | [4] 0.056 | filanesib 0.02 | zotarolimus -0.027 | idasanutlin 0.046 | alisertib -0.031 | [5] 0.046 | gefitinib 0.054 | [6] 0.127 | lapatinib -0.02 | pictilisib 0.06
